Literature values as cited in patent publication US20220026427A1, “CELL BASED ASSAYS AND KITS FOR ASSESSING SERUM CHOLINERGIC RECEPTOR ACTIVITY” (Centre for Addiction and Mental Health, priority 2017, published 2022).
Counter-ions that a name gives are not always drawn.

Conditions: in vivo, iv; cited from earlier work

Compound: CN1[C@@H]2C[C@@H](OC(=O)[C@H](CO)c3ccccc3)C[C@H]1[C@@H]1O[C@@H]12 [scopolamine, Scopolamine Hydrobromide]
- time at which plasma levels peak: 30 min
